{"source": "PubChem BioAssay AID1224828 (NIAID, 2016)", "screen": "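Knock-downs that increase or decrease LPS-induced p65 nuclear translocation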 (primary screen)", "cell system": "mouse RAW264.7 G9 macrophage reporter cells (GFP-p65, Tnf promoter-mCherry)", "knock-down reagent": "siRNA pool against mouse genes, 100 nM", "timing": "2 days siRNA transfection, then 40 min LPS before fixation", "conditions": "LPS (Salmonella minnesota R595) at 10 ng/ml", "read-out": "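Imaged p65 nuclear translocation ratio, normalised to the plate median, converted to robust z-scores and averaged across two replicates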", "direction": "p65 translocation robust z-score: higher = more nuclear NF-kappaB p65 after LPS than the plate median; nuclear/cytoplasmic p65 ratio: higher = more nuclear NF-kappaB p65", "hit rule": "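Called active when z exceeds 3.3 or falls under -1.56 (median of Tlr4 controls), giving activity score of at least 50; no calls for control wells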", "calls": "active = hit (p65 shift raised or lowered); inactive = no clear change", "note": "Shown is one part, drawn at random, of about 17,000 reagents tested. In the full data, 762 (4.5%) are marked active. 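Active calls include both raised and lowered p65 entry, mostly lowered; wells with fewer than 50 cells lack a z-score.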 The raw values are shown without normalisation."}
{"gene knocked down": "Gins4", "p65 translocation robust z-score": -0.04, "nuclear/cytoplasmic p65 ratio, rep 1": 1.31, "nuclear/cytoplasmic p65 ratio, rep 2": 1.54, "low cell count flag": "enough cells to score", "call": "inactive"}
{"gene knocked down": "1810065E05Rik", "nuclear/cytoplasmic p65 ratio, rep 1": 1.28, "nuclear/cytoplasmic p65 ratio, rep 2": 1.58, "low cell count flag": "fewer than 50 cells per well; well left out of scoring", "call": "inactive"}
{"gene knocked down": "Mmab", "p65 translocation robust z-score": -0.8, "nuclear/cytoplasmic p65 ratio, rep 1": 1.4, "nuclear/cytoplasmic p65 ratio, rep 2": 1.18, "low cell count flag": "enough cells to score", "call": "inactive"}
{"gene knocked down": "Ms4a4b", "p65 translocation robust z-score": -0.74, "nuclear/cytoplasmic p65 ratio, rep 1": 1.66, "nuclear/cytoplasmic p65 ratio, rep 2": 1.48, "low cell count flag": "enough cells to score", "call": "inactive"}
{"gene knocked down": "Bola2", "p65 translocation robust z-score": -0.9, "nuclear/cytoplasmic p65 ratio, rep 1": 1.44, "nuclear/cytoplasmic p65 ratio, rep 2": 1.3, "low cell count flag": "enough cells to score", "call": "inactive"}
{"gene knocked down": "Kars1", "p65 translocation robust z-score": 1.36, "nuclear/cytoplasmic p65 ratio, rep 1": 1.85, "nuclear/cytoplasmic p65 ratio, rep 2": 1.52, "low cell count flag": "enough cells to score", "call": "inactive"}
{"gene knocked down": "Ets2", "p65 translocation robust z-score": 0.36, "nuclear/cytoplasmic p65 ratio, rep 1": 1.52, "nuclear/cytoplasmic p65 ratio, rep 2": 1.41, "low cell count flag": "enough cells to score", "call": "inactive"}
{"gene knocked down": "Asprv1", "p65 translocation robust z-score": 0.69, "nuclear/cytoplasmic p65 ratio, rep 1": 1.39, "nuclear/cytoplasmic p65 ratio, rep 2": 1.39, "low cell count flag": "enough cells to score", "call": "inactive"}
{"gene knocked down": "Itga8", "p65 translocation robust z-score": 0.95, "nuclear/cytoplasmic p65 ratio, rep 1": 1.59, "nuclear/cytoplasmic p65 ratio, rep 2": 1.51, "low cell count flag": "enough cells to score", "call": "inactive"}
{"gene knocked down": "Rcan3", "nuclear/cytoplasmic p65 ratio, rep 1": 1.39, "nuclear/cytoplasmic p65 ratio, rep 2": 1.36, "low cell count flag": "fewer than 50 cells per well; well left out of scoring", "call": "inactive"}
{"gene knocked down": "Nat8f4", "nuclear/cytoplasmic p65 ratio, rep 1": 1.2, "nuclear/cytoplasmic p65 ratio, rep 2": 1.37, "low cell count flag": "fewer than 50 cells per well; well left out of scoring", "call": "inactive"}
{"gene knocked down": "Vmn1r65", "p65 translocation robust z-score": 0.48, "nuclear/cytoplasmic p65 ratio, rep 1": 1.43, "nuclear/cytoplasmic p65 ratio, rep 2": 1.3, "low cell count flag": "enough cells to score", "call": "inactive"}
{"gene knocked down": "Adgrg2", "nuclear/cytoplasmic p65 ratio, rep 1": 1.81, "nuclear/cytoplasmic p65 ratio, rep 2": 1.51, "low cell count flag": "fewer than 50 cells per well; well left out of scoring", "call": "inactive"}
{"gene knocked down": "Slc25a19", "p65 translocation robust z-score": 0.05, "nuclear/cytoplasmic p65 ratio, rep 1": 1.58, "nuclear/cytoplasmic p65 ratio, rep 2": 1.47, "low cell count flag": "enough cells to score", "call": "inactive"}
{"gene knocked down": "Fxyd4", "p65 translocation robust z-score": 2.07, "nuclear/cytoplasmic p65 ratio, rep 1": 1.88, "nuclear/cytoplasmic p65 ratio, rep 2": 1.8, "low cell count flag": "enough cells to score", "call": "inactive"}
{"gene knocked down": "Vstm2b", "nuclear/cytoplasmic p65 ratio, rep 1": 1.31, "nuclear/cytoplasmic p65 ratio, rep 2": 1.18, "low cell count flag": "fewer than 50 cells per well; well left out of scoring", "call": "inactive"}
{"gene knocked down": "Cep120", "p65 translocation robust z-score": 2.76, "nuclear/cytoplasmic p65 ratio, rep 1": 1.74, "nuclear/cytoplasmic p65 ratio, rep 2": 2.17, "low cell count flag": "enough cells to score", "call": "inactive"}
{"gene knocked down": "Epop", "p65 translocation robust z-score": -1.79, "nuclear/cytoplasmic p65 ratio, rep 1": 1.26, "nuclear/cytoplasmic p65 ratio, rep 2": 1.1, "low cell count flag": "enough cells to score", "call": "active"}
{"gene knocked down": "Gps1", "p65 translocation robust z-score": 1.38, "nuclear/cytoplasmic p65 ratio, rep 1": 1.58, "nuclear/cytoplasmic p65 ratio, rep 2": 1.58, "low cell count flag": "enough cells to score", "call": "inactive"}
{"gene knocked down": "Cd24a", "p65 translocation robust z-score": 0.01, "nuclear/cytoplasmic p65 ratio, rep 1": 1.54, "nuclear/cytoplasmic p65 ratio, rep 2": 1.84, "low cell count flag": "enough cells to score", "call": "inactive"}
{"gene knocked down": "Rfx5", "p65 translocation robust z-score": 1.3, "nuclear/cytoplasmic p65 ratio, rep 1": 1.72, "nuclear/cytoplasmic p65 ratio, rep 2": 1.68, "low cell count flag": "enough cells to score", "call": "inactive"}

2 of these entries in another layout.
{"gene knocked down":"Itga8","p65 translocation robust z-score":0.95,"nuclear/cytoplasmic p65 ratio, rep 1":1.59,"nuclear/cytoplasmic p65 ratio, rep 2":1.51,"low cell count flag":"enough cells to score","call":"inactive"}
{"gene knocked down":"Rcan3","nuclear/cytoplasmic p65 ratio, rep 1":1.39,"nuclear/cytoplasmic p65 ratio, rep 2":1.36,"low cell count flag":"fewer than 50 cells per well; well left out of scoring","call":"inactive"}
